Laboratory results published in the supplement of paper PMC10735217.
The other results are listed elsewhere or left out. Single values are uncertain here, since repeats match poorly.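 The human kidney-derived cells carry a stably integrated construct of eight TEAD-binding elements driving luciferase, read by luminescence in a drug-repurposing library screen. A compound counts as a hit when its signal is more than five robust Z scores above the plate mean.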

Tested on: HEK293A TEAD-LUC reporter
Test: TEAD-luciferase reporter activity (YAP activation), robust Z score vs plate; higher = stronger YAP/TEAD activation
Settings: 24 h

SMILES | TEAD-luciferase reporter activity (compound concentration: 200 nM) | TEAD-luciferase reporter activity (compound concentration: 2 uM) | TEAD-luciferase reporter activity (compound concentration: 10 uM)
CCC[C@@H](NC(=O)N1C(=O)C(CC)(CC)[C@H]1Oc1ccc(CC(=O)O)cc1)c1ccc(C)cc1 | inactive: 0.276 | inactive: -1.02 | inactive: -1.31
CCN(CC)CCNc1ccc(CNS(C)(=O)=O)c2sc3ccccc3c(=O)c12 | inactive: -2.06 | inactive: -0.931 | inactive: 0.278
CCOC(=O)Nc1cccc2c1CN(C)CC2c1ccc(Cl)cc1 (stereo not drawn) | inactive: -1.19 | inactive: -0.31 | inactive: 3.51
C[C@]12C=CC(=O)C=C1CC[C@@H]1[C@@H]2[C@@H](O)C[C@@]2(C)[C@H]1CC[C@]2(O)C(=O)OCCl | inactive: 0.311 | inactive: 2.12 | inactive: -0.475
Cc1nc2ccccn2c(=O)c1CCN1CCC(=C(c2ccc(F)cc2)c2ccc(F)cc2)CC1 [Seganserin] | inactive: -0.452 | inactive: -0.833 | inactive: 1.54
O=c1cc(-c2ccccc2Cl)c2ccc(OCCc3cncn3Cc3ccccc3)c(CCc3ccccc3)c2o1 | inactive: -0.393 | inactive: -1.33 | inactive: -1.58
Cc1ccccc1NC(=O)C(C)N1CCCC1 (stereo not drawn) | inactive: 1.67 | – | inactive: 0.202
Cc1ccccc1NC(=O)C(C)N1CCCC1 (stereo not drawn) [Aptocaine] | – | inactive: -0.87 | –
CCCN1CCCC12Cc1ccccc1CN(C(=O)CCCC(=O)O)C2 (stereo not drawn) | inactive: -0.119 | – | inactive: 0.162
CC(C)(CCC(C(N)=O)(c1ccccc1)c1ccccc1)N1CC(Oc2cccc(O)c2)C1 | inactive: 0.135 | inactive: -0.884 | inactive: 1.54
CON(Cc1ccc(F)cc1)C(=O)/C=C1\OC(C)(C)OC1=O | inactive: 1.25 | inactive: -0.645 | inactive: -0.475
COCCNC(=O)COc1ccc(OCCNC[C@H](O)COc2ccccc2)cc1 | inactive: -1.35 | inactive: -0.176 | inactive: 3.68
CC(C)(C)CC(=O)OCC(=O)[C@@]12OC(C)(C)O[C@@H]1C[C@H]1[C@@H]3CCC4=CC(=O)C=C[C@]4(C)[C@@]3(F)[C@@H](O)C[C@@]12C | inactive: -1.79 | inactive: 1.95 | inactive: 1.3
O=C(Nc1ccc2c(c1)CCN(Cc1ncn[nH]1)C2)c1ccccc1-c1ccc(C(F)(F)F)cc1 | inactive: -0.187 | inactive: -0.18 | inactive: -1.44
CNC=O [N-Methylformamide] | – | inactive: 0.426 | –
CNC=O | inactive: -1.75 | – | inactive: 0.468
CC(=O)Oc1cc(C)c(OC(C)=O)c2ccccc12 | inactive: 0.161 | inactive: -1.85 | inactive: 0.467
COC(=O)C(C)(C)CCCOc1ccc(OCCCC(C)(C)C(=O)OC)c(-c2ccccc2)c1 | inactive: -2.24 | inactive: 0.684 | inactive: -0.0223
CC(C)C1CCCN1Cc1nc2c(oc3ccccc32)c(=O)[nH]1 (stereo not drawn) | inactive: -2.15 | inactive: -0.79 | inactive: 0.402
CCCC(=O)O[C@]1(C(=O)COC(=O)CC)[C@@H](C)C[C@H]2[C@@H]3CCC4=CC(=O)C=C[C@]4(C)[C@@]3(F)[C@@H](O)C[C@@]21C | inactive: -0.897 | inactive: -0.414 | inactive: 0.128
CCC(O)(c1ccccc1)c1cccc(C(F)(F)F)c1 (stereo not drawn) [flumecinol] | inactive: -1.58 | inactive: -0.429 | inactive: -0.476
CCc1nc2c(C)cc(C(=O)O)nc2n1Cc1ccc(-c2ccccc2-c2nnn[nH]2)cc1 | inactive: -2.46 | inactive: -1.03 | inactive: -2.08
O=C(O)CN(CCN(CC(=O)O)CC(=O)O)CCN(CC(=O)O)CC(=O)O | inactive: -0.0482 | inactive: 0.007 | inactive: 1.67
CCC(=O)OCC(=O)[C@@]1(OC(=O)CC)[C@@H](C)C[C@H]2[C@@H]3CCC4=CC(=O)C=C[C@]4(C)[C@@]3(Cl)[C@@H](O)C[C@@]21C [Beclomethasone dipropionate] | inactive: -1.02 | – | inactive: 1.97
CCC(=O)OCC(=O)[C@@]1(OC(=O)CC)[C@@H](C)C[C@H]2[C@@H]3CCC4=CC(=O)C=C[C@]4(C)[C@@]3(Cl)[C@@H](O)C[C@@]21C [beclometasone dipropionate,Chiesi] | – | inactive: -0.797 | –
Cc1cccc(COCCCOCc2coc(-c3ccccc3)n2)c1C(=O)O | inactive: -0.18 | – | inactive: -0.389
O=C1CC2(CCCC2)CC(=O)N1CCCCNCC1COc2ccccc2O1 (stereo not drawn) | inactive: 0.366 | inactive: -1.19 | inactive: -0.399
CCCC(CCC)N1CCn2nc(-c3ccc(Cl)cc3Cl)c3nc(C)cc1c32 | inactive: -1.11 | inactive: -0.767 | inactive: 0.152

As entered above.
Under TEAD-luciferase reporter activity (compound concentration: 200 nM), CC(C)(C)CC(=O)OCC(=O)[C@@]12OC(C)(C)O[C@@H]1C[C@H]1[C@@H]3CCC4=CC(=O)C=C[C@]4(C)[C@@]3(F)[C@@H](O)C[C@@]12C reads inactive: -1.79
Under TEAD-luciferase reporter activity (compound concentration: 200 nM), C[C@]12C=CC(=O)C=C1CC[C@@H]1[C@@H]2[C@@H](O)C[C@@]2(C)[C@H]1CC[C@]2(O)C(=O)OCCl reads inactive: 0.311
